Measurements reported in PubChem BioAssay AID1224830 (NIAID, 2016)
Shown is an unselected part of about 18,000 deposited reagents. Over the whole deposit, about 2,900 (16%) are marked active. 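Calls are made per well; low scores hint the gene aids the LPS response, high scores that it dampens it.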 Repeated entries: four replicate wells of each siRNA pool.

- Assay: 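Regulators of TLR4 signalling towards TNF-alpha in macrophage-like cells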 (primary screen)
- System: human THP-1 monocytic leukaemia cells, TNF dual-luciferase reporter clone, PMA-differentiated to macrophage-like cells
- Reagents: siRNA pool against human genes, 50 nM
- Timing: LPS for 4 h, given about 3 days after siRNA transfection
- Challenge: bacterial LPS (TLR4 ligand), 10 ng/ml
- Measurement: 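Ratio of firefly to renilla light, scaled to the plate median and expressed as a robust z-score per replicate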
- Direction: TNF reporter robust z-score: higher = stronger TNF reporter response to LPS
- Call rule: 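a well is active when its z-score exceeds 2.8 or falls below -1.5; control wells carry no call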

The opening 11 entries as a preview:
gene	TNF reporter robust z-score	outcome
TRIM51	0.65	inactive
TRIM51	-0.62	inactive
TRIM51	0.69	inactive
TRIM51	0.26	inactive
HES7	-0.04	inactive
HES7	0.41	inactive
HES7	0.42	inactive
HES7	0.07	inactive
DLGAP1	-0.16	inactive
DLGAP1	0.79	inactive
DLGAP1	0.41	inactive

The list itself, from the first entry:
gene	TNF reporter robust z-score	outcome
TRIM51	0.65	inactive
TRIM51	-0.62	inactive
TRIM51	0.69	inactive
TRIM51	0.26	inactive
HES7	-0.04	inactive
HES7	0.41	inactive
HES7	0.42	inactive
HES7	0.07	inactive
DLGAP1	-0.16	inactive
DLGAP1	0.79	inactive
DLGAP1	0.41	inactive
DLGAP1	1.27	inactive
MED16	-1.03	inactive
MED16	-0.51	inactive
MED16	-0.21	inactive
MED16	-0.08	inactive
PBLD	-0.19	inactive
PBLD	-0.43	inactive
PBLD	0.04	inactive
PBLD	0.24	inactive
FAM171A1	-0.25	inactive
FAM171A1	0.09	inactive
FAM171A1	0.01	inactive
FAM171A1	0.28	inactive
MCF2	-0.58	inactive
MCF2	0.37	inactive
MCF2	0.6	inactive
MCF2	-1.23	inactive
DHX40	-0.85	inactive
DHX40	-0.65	inactive
DHX40	-0.94	inactive
DHX40	-0.68	inactive
ZNF317	-0.6	inactive
ZNF317	0.12	inactive
ZNF317	-0.07	inactive
ZNF317	0.1	inactive
RBM24	-0.67	inactive
RBM24	-0.24	inactive
RBM24	-0.95	inactive
RBM24	-0.75	inactive
TMEM161A	-1.46	inactive
TMEM161A	-0.47	inactive
TMEM161A	-1.67	active
TMEM161A	-0.66	inactive
PRPF18	0	inactive
PRPF18	1.59	inactive
PRPF18	2.14	inactive
PRPF18	2.16	inactive
STRC	1.08	inactive
STRC	2.09	inactive
STRC	1.6	inactive
STRC	2.25	inactive
LARP4B	-1.19	inactive
LARP4B	-0.83	inactive
LARP4B	-1.59	active
LARP4B	-1.32	inactive
AGPAT3	0.49	inactive
AGPAT3	1.72	inactive
AGPAT3	0.58	inactive
AGPAT3	0.5	inactive
EMX1	-0.15	inactive
EMX1	-0.01	inactive
EMX1	-1.3	inactive
EMX1	-0.53	inactive
CCNB1IP1	1.1	inactive
CCNB1IP1	0.3	inactive
CCNB1IP1	0.23	inactive
CCNB1IP1	2.39	inactive
COG7	0.12	inactive
COG7	-0.58	inactive
COG7	-1.05	inactive
COG7	-0.04	inactive
ZFAT	0.55	inactive
ZFAT	-0.73	inactive
ZFAT	-0.76	inactive
ZFAT	-0.07	inactive
HTR5A	-0.67	inactive
HTR5A	-0.63	inactive
HTR5A	-0.64	inactive
HTR5A	-0.2	inactive
ZCCHC7	-0.47	inactive
ZCCHC7	-0.58	inactive
ZCCHC7	-0.94	inactive
ZCCHC7	-0.49	inactive
SMARCC2	2.25	inactive
SMARCC2	2.42	inactive
SMARCC2	2.06	inactive
SMARCC2	3.16	active
CYP4A22	1.42	inactive
CYP4A22	0.95	inactive
CYP4A22	2.35	inactive
CYP4A22	0.55	inactive
OR3A2	-0.05	inactive
OR3A2	0.49	inactive
OR3A2	-0.83	inactive
OR3A2	-0.35	inactive
BTNL3	-1.24	inactive
BTNL3	-0.13	inactive
BTNL3	-0.19	inactive
BTNL3	-0.34	inactive
SLC38A8	-0.44	inactive
SLC38A8	-0.02	inactive
SLC38A8	-1.26	inactive
SLC38A8	-1.05	inactive
MAEA	0.59	inactive
MAEA	0.31	inactive
MAEA	-0.51	inactive
MAEA	0.34	inactive
CHMP3	-1.03	inactive
CHMP3	-0.57	inactive
CHMP3	-0.74	inactive
CHMP3	-0.73	inactive
TRPM5	-0.34	inactive
TRPM5	2.69	inactive
TRPM5	-0.43	inactive
TRPM5	0.76	inactive
ZZEF1	-0.2	inactive
ZZEF1	0.54	inactive
ZZEF1	0.88	inactive
ZZEF1	0.61	inactive
RND1	1.05	inactive
RND1	2.69	inactive
RND1	1.65	inactive
RND1	2.34	inactive
RPE65	0.21	inactive
RPE65	-0.63	inactive
RPE65	0.11	inactive
RPE65	1.49	inactive
ARMC10	3.68	active
ARMC10	2.94	active
ARMC10	2.05	inactive
ARMC10	1.25	inactive
ACADSB	-1.19	inactive
ACADSB	-0.97	inactive
ACADSB	-1.11	inactive
ACADSB	-0.24	inactive
FUNDC2	-0.33	inactive
FUNDC2	0.66	inactive
FUNDC2	0.22	inactive
FUNDC2	-0.36	inactive
